Experimental data reported in the supplement of paper PMC12819154, “High-throughput peptide-centric local stability assay extends protein–ligand identification to membrane proteins, tissues and bacteria” (Nature Structural & Molecular Biology, 2025).
The entries are a selection whose mix differs from that of the whole data set. Most values lie at the level of the controls, where differences are scatter.

By UniProt entry, the sequences of proteins in these tests, tags left out. Where a name states a change or a piece, a line headed by the entry shows the natural chain unless it says otherwise.
UniProt P75616: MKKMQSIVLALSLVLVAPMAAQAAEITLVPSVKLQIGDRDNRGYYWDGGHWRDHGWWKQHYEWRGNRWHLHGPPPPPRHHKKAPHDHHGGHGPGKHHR
UniProt P75820: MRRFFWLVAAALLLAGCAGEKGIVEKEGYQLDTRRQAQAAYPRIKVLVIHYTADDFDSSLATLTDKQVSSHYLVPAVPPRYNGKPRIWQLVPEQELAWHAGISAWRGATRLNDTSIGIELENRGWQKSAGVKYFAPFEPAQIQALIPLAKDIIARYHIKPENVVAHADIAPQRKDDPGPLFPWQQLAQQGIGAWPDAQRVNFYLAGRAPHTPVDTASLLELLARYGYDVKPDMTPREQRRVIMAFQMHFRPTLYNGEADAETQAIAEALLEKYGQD
UniProt P76361: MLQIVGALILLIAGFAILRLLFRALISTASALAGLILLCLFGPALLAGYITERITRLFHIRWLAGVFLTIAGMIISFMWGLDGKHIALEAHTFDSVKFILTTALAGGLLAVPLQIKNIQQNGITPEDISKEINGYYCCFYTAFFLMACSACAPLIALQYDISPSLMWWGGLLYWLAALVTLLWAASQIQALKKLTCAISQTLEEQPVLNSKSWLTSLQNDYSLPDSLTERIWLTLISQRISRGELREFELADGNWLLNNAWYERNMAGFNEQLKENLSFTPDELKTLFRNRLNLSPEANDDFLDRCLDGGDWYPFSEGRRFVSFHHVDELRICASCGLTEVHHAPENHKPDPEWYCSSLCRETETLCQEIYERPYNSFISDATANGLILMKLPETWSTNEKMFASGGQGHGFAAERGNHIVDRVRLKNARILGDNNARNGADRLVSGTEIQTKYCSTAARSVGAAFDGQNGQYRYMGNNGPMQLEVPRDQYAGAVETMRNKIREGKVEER
UniProt P76004: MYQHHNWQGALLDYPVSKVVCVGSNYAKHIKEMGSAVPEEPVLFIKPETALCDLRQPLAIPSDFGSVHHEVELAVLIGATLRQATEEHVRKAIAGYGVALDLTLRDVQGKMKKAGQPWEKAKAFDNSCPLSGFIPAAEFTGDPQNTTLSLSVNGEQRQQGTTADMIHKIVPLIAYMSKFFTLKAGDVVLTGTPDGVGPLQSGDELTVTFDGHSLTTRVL
UniProt P77154: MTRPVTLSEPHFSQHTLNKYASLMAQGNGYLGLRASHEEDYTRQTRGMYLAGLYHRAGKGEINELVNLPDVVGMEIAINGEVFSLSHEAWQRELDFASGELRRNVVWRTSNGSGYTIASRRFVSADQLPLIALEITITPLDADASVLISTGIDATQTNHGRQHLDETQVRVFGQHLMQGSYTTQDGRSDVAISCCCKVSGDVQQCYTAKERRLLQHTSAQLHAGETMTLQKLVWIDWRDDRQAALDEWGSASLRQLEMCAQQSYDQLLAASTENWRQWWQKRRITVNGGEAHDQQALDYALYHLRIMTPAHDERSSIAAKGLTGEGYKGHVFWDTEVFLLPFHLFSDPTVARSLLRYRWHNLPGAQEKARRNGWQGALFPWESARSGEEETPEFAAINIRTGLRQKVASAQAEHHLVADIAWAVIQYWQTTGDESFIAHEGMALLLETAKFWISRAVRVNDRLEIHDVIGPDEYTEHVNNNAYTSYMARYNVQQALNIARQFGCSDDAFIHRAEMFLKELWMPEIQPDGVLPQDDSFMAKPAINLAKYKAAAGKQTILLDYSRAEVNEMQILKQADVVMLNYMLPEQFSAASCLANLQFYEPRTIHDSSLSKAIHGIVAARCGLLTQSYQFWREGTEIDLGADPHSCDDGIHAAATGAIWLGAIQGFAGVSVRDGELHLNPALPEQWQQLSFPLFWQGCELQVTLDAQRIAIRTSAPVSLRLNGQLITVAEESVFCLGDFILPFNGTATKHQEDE
UniProt P76549: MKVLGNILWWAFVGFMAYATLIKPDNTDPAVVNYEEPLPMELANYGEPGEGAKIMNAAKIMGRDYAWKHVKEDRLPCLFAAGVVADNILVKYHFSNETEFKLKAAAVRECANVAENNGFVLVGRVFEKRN
UniProt P76213: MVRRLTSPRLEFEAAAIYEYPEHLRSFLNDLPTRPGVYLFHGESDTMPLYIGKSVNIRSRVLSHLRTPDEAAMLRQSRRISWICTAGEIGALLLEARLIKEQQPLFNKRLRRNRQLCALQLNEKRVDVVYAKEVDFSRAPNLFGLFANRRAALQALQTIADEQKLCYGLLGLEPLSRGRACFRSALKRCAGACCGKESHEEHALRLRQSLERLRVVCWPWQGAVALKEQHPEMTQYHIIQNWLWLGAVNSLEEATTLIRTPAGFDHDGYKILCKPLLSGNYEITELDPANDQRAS
UniProt P76540: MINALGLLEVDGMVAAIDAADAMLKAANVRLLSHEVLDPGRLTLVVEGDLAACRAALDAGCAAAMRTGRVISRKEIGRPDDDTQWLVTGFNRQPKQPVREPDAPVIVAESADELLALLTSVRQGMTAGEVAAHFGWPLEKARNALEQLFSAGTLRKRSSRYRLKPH
UniProt P76113: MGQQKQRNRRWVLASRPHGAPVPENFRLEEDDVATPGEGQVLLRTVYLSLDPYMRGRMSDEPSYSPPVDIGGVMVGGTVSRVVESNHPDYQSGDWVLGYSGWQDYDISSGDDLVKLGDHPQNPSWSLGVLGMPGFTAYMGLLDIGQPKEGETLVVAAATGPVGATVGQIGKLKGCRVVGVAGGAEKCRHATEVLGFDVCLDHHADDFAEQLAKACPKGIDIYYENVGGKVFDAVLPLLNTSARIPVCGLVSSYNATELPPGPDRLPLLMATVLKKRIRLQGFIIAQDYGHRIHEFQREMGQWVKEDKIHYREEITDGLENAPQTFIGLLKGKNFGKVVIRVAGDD
UniProt P76044: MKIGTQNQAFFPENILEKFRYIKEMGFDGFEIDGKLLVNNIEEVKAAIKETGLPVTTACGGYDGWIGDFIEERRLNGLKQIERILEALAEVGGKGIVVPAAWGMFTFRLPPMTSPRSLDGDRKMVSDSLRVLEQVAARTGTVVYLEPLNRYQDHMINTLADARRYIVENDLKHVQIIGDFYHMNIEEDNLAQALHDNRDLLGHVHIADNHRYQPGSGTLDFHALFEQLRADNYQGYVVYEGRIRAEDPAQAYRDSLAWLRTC
UniProt P76001: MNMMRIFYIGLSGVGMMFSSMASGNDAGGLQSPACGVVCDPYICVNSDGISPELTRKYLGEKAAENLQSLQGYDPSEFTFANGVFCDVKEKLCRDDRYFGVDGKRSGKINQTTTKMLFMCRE
UniProt P76015: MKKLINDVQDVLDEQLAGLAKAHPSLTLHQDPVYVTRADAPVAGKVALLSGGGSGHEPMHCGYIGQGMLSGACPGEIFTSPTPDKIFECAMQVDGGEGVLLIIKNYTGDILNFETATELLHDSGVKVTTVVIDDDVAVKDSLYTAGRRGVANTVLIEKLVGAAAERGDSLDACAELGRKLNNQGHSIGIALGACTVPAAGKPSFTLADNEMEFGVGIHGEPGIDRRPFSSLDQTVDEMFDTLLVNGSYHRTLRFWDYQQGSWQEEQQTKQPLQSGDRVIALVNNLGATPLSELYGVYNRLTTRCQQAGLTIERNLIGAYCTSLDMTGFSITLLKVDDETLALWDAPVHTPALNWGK
UniProt P75975: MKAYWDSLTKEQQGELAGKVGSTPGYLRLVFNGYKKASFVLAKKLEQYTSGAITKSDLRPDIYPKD
UniProt P75988: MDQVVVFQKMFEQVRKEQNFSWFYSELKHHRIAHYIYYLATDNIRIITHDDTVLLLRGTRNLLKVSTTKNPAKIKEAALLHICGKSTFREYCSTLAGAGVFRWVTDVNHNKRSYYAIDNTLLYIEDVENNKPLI
UniProt P76339: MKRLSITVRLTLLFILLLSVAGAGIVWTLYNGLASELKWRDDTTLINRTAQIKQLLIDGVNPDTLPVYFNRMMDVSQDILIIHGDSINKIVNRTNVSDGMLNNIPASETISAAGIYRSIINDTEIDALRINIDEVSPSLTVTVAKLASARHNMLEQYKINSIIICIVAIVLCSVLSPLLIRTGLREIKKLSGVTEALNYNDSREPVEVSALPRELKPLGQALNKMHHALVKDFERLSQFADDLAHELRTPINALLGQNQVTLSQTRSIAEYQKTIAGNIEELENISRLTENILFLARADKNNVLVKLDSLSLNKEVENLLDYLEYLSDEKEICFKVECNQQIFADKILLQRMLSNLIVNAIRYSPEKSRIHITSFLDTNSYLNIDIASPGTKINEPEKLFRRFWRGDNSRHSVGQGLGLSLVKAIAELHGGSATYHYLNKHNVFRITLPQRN
UniProt P76272: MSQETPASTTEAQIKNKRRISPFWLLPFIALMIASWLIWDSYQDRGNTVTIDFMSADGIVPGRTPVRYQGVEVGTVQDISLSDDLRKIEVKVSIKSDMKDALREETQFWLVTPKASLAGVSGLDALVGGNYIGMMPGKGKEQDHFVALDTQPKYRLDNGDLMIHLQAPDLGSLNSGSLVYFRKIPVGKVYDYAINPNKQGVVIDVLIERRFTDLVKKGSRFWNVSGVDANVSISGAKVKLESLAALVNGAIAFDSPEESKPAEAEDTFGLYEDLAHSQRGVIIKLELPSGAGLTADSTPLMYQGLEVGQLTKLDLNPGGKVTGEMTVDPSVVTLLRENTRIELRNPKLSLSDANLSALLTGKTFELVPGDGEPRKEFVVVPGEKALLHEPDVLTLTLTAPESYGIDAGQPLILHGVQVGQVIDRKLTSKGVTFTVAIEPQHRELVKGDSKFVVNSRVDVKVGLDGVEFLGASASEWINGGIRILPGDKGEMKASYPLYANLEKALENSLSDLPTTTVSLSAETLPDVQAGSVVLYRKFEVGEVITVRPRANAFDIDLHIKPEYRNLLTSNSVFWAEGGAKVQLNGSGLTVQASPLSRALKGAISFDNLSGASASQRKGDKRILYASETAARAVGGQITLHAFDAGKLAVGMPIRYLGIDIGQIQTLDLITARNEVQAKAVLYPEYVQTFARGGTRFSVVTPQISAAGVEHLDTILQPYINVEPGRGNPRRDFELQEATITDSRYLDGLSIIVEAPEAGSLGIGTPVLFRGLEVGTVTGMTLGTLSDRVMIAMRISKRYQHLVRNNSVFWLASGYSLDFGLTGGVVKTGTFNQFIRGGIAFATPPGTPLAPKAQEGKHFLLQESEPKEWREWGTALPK
UniProt P76406: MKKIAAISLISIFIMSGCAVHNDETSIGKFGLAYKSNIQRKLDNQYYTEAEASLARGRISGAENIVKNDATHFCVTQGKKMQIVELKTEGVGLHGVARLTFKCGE
UniProt P76063: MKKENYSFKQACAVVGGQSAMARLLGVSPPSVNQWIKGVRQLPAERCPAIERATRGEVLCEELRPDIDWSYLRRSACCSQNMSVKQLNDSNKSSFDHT
UniProt P76220: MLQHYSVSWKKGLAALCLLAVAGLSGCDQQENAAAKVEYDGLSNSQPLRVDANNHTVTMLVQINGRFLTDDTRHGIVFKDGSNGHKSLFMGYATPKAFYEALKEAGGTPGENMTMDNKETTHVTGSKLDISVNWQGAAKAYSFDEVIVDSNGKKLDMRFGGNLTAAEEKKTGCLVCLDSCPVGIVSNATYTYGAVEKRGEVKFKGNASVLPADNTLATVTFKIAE
UniProt P76546: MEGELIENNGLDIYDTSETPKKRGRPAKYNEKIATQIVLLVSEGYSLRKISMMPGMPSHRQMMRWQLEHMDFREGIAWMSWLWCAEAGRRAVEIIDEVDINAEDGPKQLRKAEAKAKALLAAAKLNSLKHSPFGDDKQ
UniProt P75867: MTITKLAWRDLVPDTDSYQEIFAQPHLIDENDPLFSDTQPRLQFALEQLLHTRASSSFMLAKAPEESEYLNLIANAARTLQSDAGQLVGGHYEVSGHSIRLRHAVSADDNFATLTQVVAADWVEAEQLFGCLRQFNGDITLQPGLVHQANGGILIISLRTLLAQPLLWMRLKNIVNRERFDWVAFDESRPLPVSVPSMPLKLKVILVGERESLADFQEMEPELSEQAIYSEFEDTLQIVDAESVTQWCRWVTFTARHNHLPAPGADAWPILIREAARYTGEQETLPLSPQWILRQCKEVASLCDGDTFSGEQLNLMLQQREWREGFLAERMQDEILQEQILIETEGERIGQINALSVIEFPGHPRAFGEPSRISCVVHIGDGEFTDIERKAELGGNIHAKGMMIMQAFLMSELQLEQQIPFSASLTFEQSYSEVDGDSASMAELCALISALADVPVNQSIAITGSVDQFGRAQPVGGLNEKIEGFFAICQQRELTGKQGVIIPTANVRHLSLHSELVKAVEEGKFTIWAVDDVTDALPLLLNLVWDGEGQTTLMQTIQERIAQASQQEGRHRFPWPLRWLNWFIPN
UniProt P76086: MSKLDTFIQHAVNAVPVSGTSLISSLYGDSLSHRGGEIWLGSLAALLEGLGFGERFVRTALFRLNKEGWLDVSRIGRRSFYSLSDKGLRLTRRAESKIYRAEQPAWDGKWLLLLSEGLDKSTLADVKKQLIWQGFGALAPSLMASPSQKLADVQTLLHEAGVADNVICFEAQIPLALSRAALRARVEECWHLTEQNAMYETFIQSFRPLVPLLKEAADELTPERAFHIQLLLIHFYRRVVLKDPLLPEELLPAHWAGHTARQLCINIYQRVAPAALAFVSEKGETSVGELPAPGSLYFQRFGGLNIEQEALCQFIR

Compound: Nc1ncnc2c1ncn2[C@@H]1O[C@H](COP(=O)(O)OP(=O)(O)OP(=O)(O)O)[C@@H](O)[C@H]1O [adenosine 5'-triphosphate]
Assay: log2 fold change of tryptic peptide abundance, ligand vs vehicle (limited proteolysis) (log2 ratio); higher = more trypsin-susceptible (destabilized)
Details: ligand concentration: 5 mM; sample: E. coli desalted lysate; replicate design: treated before aliquoting
Experimental: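 HT-PELSA: desalted E. coli K-12 BW25113 lysate (with 12 mM MgCl2) incubated with 5 mM ATP (pH 7) or water for 30 min at 25 C, then a 4 min trypsin pulse at 22 C. Peptides were quantified by DIA-MS (4 replicates). Value is the peptide log2 fold change (treated/control); negative = stabilized. Scale: negative = ligand-stabilized region.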
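Also: lysate desalted by size exclusion to strip endogenous ATP, peptide intensities built from DIA-NN precursor signals, and peptides missing any value discarded before comparison.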

Row | Target | log2 fold change
1 | UniProt P75800 (peptide sequence: AILGAEALCR, peptide start residue: 557) | 0.54
2 | UniProt P75616 (peptide sequence: WHLHGPPPPPR, peptide start residue: 68) | -0.338
3 | UniProt P75820 (peptide sequence: EGYQLDTR, peptide start residue: 27) | -0.246
4 | UniProt P76655 (peptide sequence: LYLSGTSQR, peptide start residue: 622) | -0.499
5 | UniProt P76208 (peptide sequence: FLREGVEDQLILEK, peptide start residue: 114) | 0.201
6 | UniProt P76361 (peptide sequence: ILGDNNAR, peptide start residue: 431) | 0.239
7 | UniProt P76114 (peptide sequence: QLDEINR, peptide start residue: 81) | 0.391
8 | UniProt P76182 (peptide sequence: IASSPYTHNQR, peptide start residue: 5) | -0.29
9 | UniProt P76004 (peptide sequence: KAGQPWEK, peptide start residue: 113) | -0.127
10 | UniProt P77154 (peptide sequence: SDVAISCCCK, peptide start residue: 188) | -0.541
11 | UniProt P76417 (peptide sequence: DIALTQGEVK, peptide start residue: 416) | -0.0327
12 | UniProt P76549 (peptide sequence: YHFSNETEFK, peptide start residue: 92) | -0.219
13 | UniProt P76578 (peptide sequence: AASSENASSAK, peptide start residue: 39) | -0.5
14 | UniProt P76213 (peptide sequence: EQQPLFNK, peptide start residue: 101) | -0.674
15 | UniProt P76425 (peptide sequence: AHANDIKR, peptide start residue: 156) | -0.628
16 | UniProt P76251 (peptide sequence: IAAIPGDGIGK, peptide start residue: 7) | -0.246
17 | UniProt P76540 (peptide sequence: EIGRPDDDTQWLVTGFNRQPK, peptide start residue: 75) | 0.184
18 | UniProt P76113 (peptide sequence: VVGVAGGAEK, peptide start residue: 177) | -0.136
19 | UniProt P76044 (peptide sequence: DLLGHVHIADNHR, peptide start residue: 199) | -0.0815
20 | UniProt P69922 (peptide sequence: YGEDENNK, peptide start residue: 240) | -0.328

Given in CSV form: entries from further up.
Row,Target,log2 fold change
1,"UniProt P75800 (peptide sequence: AILGAEALCR, peptide start residue: 557)",0.54
2,"UniProt P75616 (peptide sequence: WHLHGPPPPPR, peptide start residue: 68)",-0.338
3,"UniProt P75820 (peptide sequence: EGYQLDTR, peptide start residue: 27)",-0.246
4,"UniProt P76655 (peptide sequence: LYLSGTSQR, peptide start residue: 622)",-0.499
7,"UniProt P76114 (peptide sequence: QLDEINR, peptide start residue: 81)",0.391
11,"UniProt P76417 (peptide sequence: DIALTQGEVK, peptide start residue: 416)",-0.0327
13,"UniProt P76578 (peptide sequence: AASSENASSAK, peptide start residue: 39)",-0.5
18,"UniProt P76113 (peptide sequence: VVGVAGGAEK, peptide start residue: 177)",-0.136
19,"UniProt P76044 (peptide sequence: DLLGHVHIADNHR, peptide start residue: 199)",-0.0815
20,"UniProt P69922 (peptide sequence: YGEDENNK, peptide start residue: 240)",-0.328

Going on with the list.

Row | Target | log2 fold change
21 | UniProt P76001 (peptide sequence: INQTTTKMLFMCRE, peptide start residue: 109) | -0.376
22 | UniProt P76015 (peptide sequence: AHPSLTLHQDPVYVTR, peptide start residue: 22) | -1.08
23 | UniProt P75869 (peptide sequence: LSKYSLDAALKEK, peptide start residue: 98) | 1.06
24 | UniProt P75975 (peptide sequence: VGSTPGYLR, peptide start residue: 20) | -0.262
25 | UniProt P76389 (peptide sequence: HDIEHIDLNAPEEEIR, peptide start residue: 310) | -0.174
26 | UniProt P75988 (peptide sequence: MFEQVRK, peptide start residue: 10) | 0.339
27 | UniProt P76539 (peptide sequence: RLIEDEEY, peptide start residue: 134) | 0.598
28 | UniProt P76339 (peptide sequence: ADKNNVLVK, peptide start residue: 298) | -0.421
29 | UniProt P76272 (peptide sequence: GKEQDHFVALDTQPK, peptide start residue: 139) | -0.638
30 | UniProt P76406 (peptide sequence: ISGAENIVK, peptide start residue: 59) | -0.253
31 | UniProt P76063 (peptide sequence: QLPAERCPAIER, peptide start residue: 41) | -0.333
32 | UniProt P76220 (peptide sequence: FGGNLTAAEEK, peptide start residue: 159) | 0.608
33 | UniProt P75791 (peptide sequence: AGHVTAEQR, peptide start residue: 71) | 0.439
34 | UniProt P76041 (peptide sequence: ELNDEATLR, peptide start residue: 458) | -0.271
35 | UniProt P76546 (peptide sequence: HSPFGDDKQ, peptide start residue: 130) | -0.602
36 | UniProt P75867 (peptide sequence: ASSSFMLAK, peptide start residue: 54) | 0.471
37 | UniProt P75746 (peptide sequence: EEVFADR, peptide start residue: 157) | -0.755
38 | UniProt P76086 (peptide sequence: EGWLDVSR, peptide start residue: 67) | 0.671
39 | UniProt P76237 (peptide sequence: LYVNKQNK, peptide start residue: 485) | 0.249
40 | UniProt P76062 (peptide sequence: AYIAAMEMK, peptide start residue: 128) | 0.353
